US7186879B2, “Screening systems and methods for identifying modulators of xenobiotic metabolism” (Baylor College of Medicine, priority 2001, dated 2007)
At least one compound was matched to its structure with a doubt left. Some of these results come from one statement about several compounds together.

Columns and labels:
human CAR = biological target: T1, human CAR (Homo sapiens, UniProt Q14994); conditions: cited from earlier work
T1 sequence (Q14994 1-348 isoform Q14994-2): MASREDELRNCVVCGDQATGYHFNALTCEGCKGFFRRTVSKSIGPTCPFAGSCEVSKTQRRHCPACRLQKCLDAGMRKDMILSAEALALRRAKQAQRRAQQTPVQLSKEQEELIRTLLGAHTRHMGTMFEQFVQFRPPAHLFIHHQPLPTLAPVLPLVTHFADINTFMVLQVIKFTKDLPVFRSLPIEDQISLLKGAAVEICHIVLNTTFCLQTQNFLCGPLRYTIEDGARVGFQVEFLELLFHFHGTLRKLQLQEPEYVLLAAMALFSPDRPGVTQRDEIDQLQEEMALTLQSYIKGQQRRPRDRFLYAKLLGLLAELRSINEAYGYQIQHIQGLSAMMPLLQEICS

murine CAR receptor = biological target: T2, murine CAR receptor (Mus musculus, UniProt O35627, M138L); conditions: cited from earlier work
T2 sequence (O35627 1-358 M138L): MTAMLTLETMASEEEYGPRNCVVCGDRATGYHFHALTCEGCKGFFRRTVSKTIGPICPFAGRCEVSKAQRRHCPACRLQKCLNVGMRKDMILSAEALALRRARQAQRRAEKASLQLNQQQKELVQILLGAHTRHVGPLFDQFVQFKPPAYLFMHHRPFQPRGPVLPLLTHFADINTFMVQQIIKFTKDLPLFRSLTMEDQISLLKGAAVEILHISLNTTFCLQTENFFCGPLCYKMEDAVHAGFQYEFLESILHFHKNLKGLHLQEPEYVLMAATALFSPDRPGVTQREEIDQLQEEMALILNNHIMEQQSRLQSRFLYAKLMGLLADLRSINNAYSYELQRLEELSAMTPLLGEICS

CYP enzyme activity = test: Zoxazolamine paralysis test; conditions: female CAR −/− mice, surviving animals
Procedure: In these experiments, mice were pretreated for three days with PB or TCPOBOP, after which time they were given a single intraperitoneal injection of zoxazolamine (300 mg/kg). Paralysis time was recorded as the time when the mice were able to right themselves repeatedly.

Compound	activity on human CAR receptor (human CAR)	activity on murine CAR receptor (murine CAR receptor)	duration of paralysis of survivors (CYP enzyme activity)
CCC1(c2ccccc2)C(=O)NC(=O)NC1=O [PB, phenobarbital]	can be activated	activate murine CAR	more than 12 hours
Clc1cnc(Oc2ccc(Oc3ncc(Cl)cc3Cl)cc2)c(Cl)c1 [TCPOBOP, 1,4-bis[2-(3,5-dichloropyridyloxy)]benzene]			more than 12 hours
